From PubChem BioAssay AID662 (National Center for Advancing Translational Sciences (NCATS), 2007)
Where “and” joins values, the source holds several entries; their conditions need not be identical. Equal values may be shown once. The list shows a part of the results. Shown are side measurements of this screen, not its main read-out; they come without a call. Most of these compounds were active or inconclusive in the main read-out, so they are no random draw. Words in brackets tell the shape of the fitted curve; partial curves, single points and poor fits give uncertain potencies.

Experiment: Cell signaling CRE-BLA (Fsk stim)
Settings: CHO CRE-bla reporter (cAMP response element driving beta-lactamase), forskolin EC10, beta-lactamase ratio; measured here: 460 nm blue channel
Method in brief: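 qHTS titration format; CRE-bla CHO reporter; stimulus EC10 NKH 477, a water-soluble forskolin. Read: CCF4 460/530 nm ratio. Potency expressed as AC50 for activators or inhibitors.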
With `O=C(NCc1ccco1)c1scc2c1OCCO2` the AC50 was 0.501 µM [falling, partial curve, poor fit].
With `CCc1cc2c(=O)c(-c3nc4ccccc4n3C)c(C)oc2c(CN2CCOCC2)c1O` the AC50 was 1 µM [falling, partial curve].
For `COc1cc(NS(C)(=O)=O)ccc1Nc1c2ccccc2nc2ccccc12`, the AC50 was 25.1 µM [rising, partial curve].
In the case of `O=C1N(CN2CCC3(CC2)OCCO3)c2ccccc2C12OCCCO2`, the AC50 is reported as 0.251 µM [falling, full curve, poor fit].
In the case of `Cc1ccc(C(=O)NC2CCS(=O)(=O)C2)cc1S(=O)(=O)N1CCOCC1` (stereo unspecified), the AC50 is reported as 2.51 µM [falling, partial curve, poor fit].
In the case of `Cc1nc2ccccc2c(=O)n1C1CCCCCC1`, the AC50 is reported as 10 µM [rising, partial curve].
With `Cc1onc(-c2c(F)cccc2Cl)c1C(=O)OCC(=O)Nc1c(C)n(C)n(-c2ccccc2)c1=O` the AC50 was 0.0398 µM [falling, full curve, poor fit].
For `CC1(C)CC(n2c(NCCO)nc3c(c2=O)C2(CCCC2)Cc2ccccc2-3)CCO1` (stereo unspecified), the AC50 was 7.94 µM [rising, partial curve].
For `CS(=O)(=O)N1CCC2(CCCN(C(c3ccccc3)c3ccccc3)C2)CC1`, the AC50 was 12.6 µM [rising, partial curve].
With `CCN1C(=O)c2cccc3c(S(=O)(=O)Nc4nc(C)cs4)ccc1c23` the AC50 was 7.94 µM [rising, partial curve].
For `CCN(CC)S(=O)(=O)c1ccc(Cl)c(C(=O)OC)c1`, the AC50 was 0.00398 µM [falling, full curve].
In the case of `CCOC(=O)CSC1=C(C#N)C(c2ccccc2OCC)C(C#N)C(=O)N1` (stereo unspecified), the AC50 is reported as 10 µM [rising, partial curve].
In the case of `Cc1nn(C)c(C)c1S(=O)(=O)NC1CCCC1`, the AC50 is reported as 0.158 µM [falling, full curve, poor fit].
With `CC(NC(=O)c1nn(C)c(=O)c2ccccc12)c1ccc(F)cc1` (stereo unspecified) the AC50 was 25.1 µM [rising, single point].
With `O=C(NCCc1c[nH]c2ccccc12)c1cccnc1` the AC50 was 5.01 µM [rising, single point].
For `COc1ccc(C2C(C(=O)NCCN(C)C)c3ccccc3C(=O)N2C)cc1OC` (stereo unspecified), the AC50 was 12.6 µM [falling, partial curve].
In the case of `Cc1ccc(NC(=O)CN(C)S(=O)(=O)c2cccs2)cc1F`, the AC50 is reported as 0.398 µM [falling, partial curve].
In the case of `Cc1c(C(=O)N2CCc3ccccc32)oc2c1C(=O)CC(C)(C)C2`, the AC50 is reported as 7.94 µM [falling, partial curve, poor fit].
With `CCn1cc(C(=O)OCc2ccc(F)cc2)c(=O)c2ccc(C)nc21` the AC50 was 12.6 µM [rising, partial curve].
With `Cc1nnc2ccc(N3CCN(c4cccc(C(F)(F)F)c4)CC3)nn12` the AC50 was 25.1 µM [falling, single point].
For `COC(=O)c1ccc(CSc2nc3ccccc3c(=O)n2-c2ccc(OC)c(OC)c2)o1`, the AC50 was 10 µM [rising, partial curve].
In the case of `CSc1nc(N2CCOCC2)c2c3c(sc2n1)CCC3`, the AC50 is reported as 10 µM [rising, partial curve].
With `CCC(=O)Nc1cc(-c2nn(C)c(=O)c3ccccc23)ccc1OC` the AC50 was 15.8 µM [rising, single point].
With `c1ccc(-c2nc3ccccc3nc2N2CCOCC2)cc1` the AC50 was 12.6 µM [rising, single point].
In the case of `Cc1cc(C)n(-c2nc3ccccc3c3nc(C)nn23)n1`, the AC50 is reported as 7.94 µM [rising, partial curve].
In the case of `CCCc1nc2oc3c(NCCN4CCOCC4)ncnc3c2c2c1CCCC2`, the AC50 is reported as 1.26 µM [rising, full curve, poor fit].
In the case of `c1ccc(-n2ncc3c(NCc4ccc5c(c4)OCO5)ncnc32)cc1`, the AC50 is reported as 1.26 µM [rising, full curve].
In the case of `NC(=O)SCC(=O)Nc1ccc2ncccc2c1`, the AC50 is reported as 0.126 µM [falling, partial curve].
With `CC1(C)CC(=O)C2=C(C1)OC(/N=C/N1CCOCC1)=C(C#N)C2c1ccccc1` (stereo unspecified) the AC50 was 1.58 µM [rising, partial curve].
In the case of `COc1ccc(-c2nc3cnc(N4CCOCC4)nc3n(C)c2=O)cc1`, the AC50 is reported as 10 µM [rising, partial curve].
With `COc1ccc2c(OC)c3ccoc3nc2c1OC` the AC50 was 25.1 µM [rising, partial curve].
For `COc1ccc(-c2cn3c(C)c(C(=O)Nc4cc(NC(C)=O)ccc4OC)sc3n2)cc1`, the AC50 was 25.1 µM [rising, single point].
For `CCOC(=O)N1CCN(C(=O)C2CC(c3cc(OC)ccc3OC)=NO2)CC1` (stereo unspecified), the AC50 was 1 µM [falling, partial curve].
For `O=C(CSC1=NCCS1)NCc1ccco1`, the AC50 was 2.51 µM [falling, partial curve, poor fit].
For `Cc1ccc2nc3c(cc(C#N)c(=O)n3CC3CCCO3)c(=O)n2c1` (stereo unspecified), the AC50 was 5.01 µM [rising, partial curve].
For `Cc1ccccc1-c1noc(-c2ccc(O)cc2)n1`, the AC50 was 0.251 µM [rising, full curve].
With `CC1(C)CC(NC(=O)CC2CCCCC2)CC(C)(C)N1` the AC50 was 0.0398 µM [falling, full curve, poor fit].
For `O=S(=O)(c1ccccc1)N1CCN(Cc2cccc(Cl)c2)CC1`, the AC50 was 3.16 µM [falling, full curve, poor fit].
With `O=C(Nc1nc2ccc(S(=O)(=O)N3CCCC3)cc2s1)C1CCCCC1` the AC50 was 12.6 µM [rising, single point].
With `NC(=O)COc1ccc2c3c(c(=O)oc2c1)CCCCC3` the AC50 was 25.1 µM [rising, single point].
In the case of `CCc1nc2oc3cc(OC)ccc3c(=O)c2c(=O)n1Cc1ccco1`, the AC50 is reported as 10 µM [rising, single point].
For `COc1ccc(OC)c(S(=O)(=O)n2cnc3cc(C)c(C)cc32)c1`, the AC50 was 15.8 µM [rising, partial curve].
For `CCCCN(CC)CCCNC(=O)c1cc2cc3ccc(OC)cc3nc2o1`, the AC50 was 1.26 µM [rising, partial curve, poor fit].
For `COc1cc(NC(=O)CC(C)C)ccc1NC(=O)c1ccco1`, the AC50 was 3.16 µM [falling, partial curve, poor fit].
With `CCCc1nc2ccccc2n2cc3c(=O)n(C)c(=O)n(C)c3c12` the AC50 was 5.01 µM [rising, partial curve].
For `CCn1c(=N)n(CC(=O)OC)c2ccccc21`, the AC50 was 7.94 µM [falling, partial curve].
For `COC(=O)Nc1nc2ccc(SC(C)C)cc2[nH]1`, the AC50 was 2 µM [rising, full curve].
In the case of `CN(C)Cc1nc2ccccc2c(=O)n1Cc1nc(C(C)(C)C)cs1`, the AC50 is reported as 6.31 µM [falling, full curve, poor fit].
With `CC(C)C(=O)Nc1cccc2nsnc12` the AC50 was 25.1 µM [falling, partial curve, poor fit].
With `COc1ccc(S(=O)(=O)NCCN2CCOCC2)c2ccccc12` the AC50 was 0.00398 µM [falling, full curve, poor fit].
With `O=C1c2ccccc2NC(c2ccc(F)cc2)N1Cc1ccco1` (stereo unspecified) the AC50 was 3.98 µM [falling, single point].
For `COC(=O)C1=C(C)NC(C)=C(C(=O)OCCCN2CCC(c3ccccc3)(c3ccccc3)CC2)[C@H]1c1cccc([N+](=O)[O-])c1`, the AC50 was 15.8 µM [falling, partial curve] and 3.98 µM [falling, full curve, poor fit].
In the case of `CN(Cc1ccccc1)C(=O)CN(C1CCCCC1)S(C)(=O)=O`, the AC50 is reported as 3.98 µM [rising, partial curve].
With `CC(=O)Nc1ccc2nc(-c3cccs3)[nH]c2c1` the AC50 was 0.00398 µM [falling, full curve, poor fit].
In the case of `COCCn1c(=O)c(-c2cccs2)nc2cnc(N3CCOCC3)nc21`, the AC50 is reported as 2 µM [rising, full curve].
With `CC(C)Sc1nc2c(c(=O)[nH]c(=O)n2C)n1CCc1ccccc1` the AC50 was 2.51 µM [rising, partial curve].
In the case of `COc1ccc(-c2cc(C(=O)NCc3cccnc3)no2)cc1OC`, the AC50 is reported as 12.6 µM [rising, single point].
With `O=C(Nc1ccc(Cl)cn1)C1CCCN1S(=O)(=O)c1ccc(Cl)cc1` (stereo unspecified) the AC50 was 3.16 µM [falling, full curve].
With `Cc1ccccc1C(=O)NC1CCN(Cc2nnnn2Cc2ccccc2)CC1` the AC50 was 0.398 µM [falling, full curve].
In the case of `NCCC[C@@H](CC(=O)N[C@@H]1CCCC[C@H]1C(=O)N[C@H](CC(=O)N[C@@H](CCC(=O)O)CC(=O)O)Cc1ccccc1)NC(=O)C[C@H](CO)NC(=O)[C@@H]1CCCC[C@H]1N`, the AC50 is reported as 7.94 µM [falling, partial curve, poor fit].
For `CCCCOc1ccc(/C(O)=C2/C(=O)C(=O)N(CCCOC)C2c2ccncc2)cc1C` (stereo unspecified), the AC50 was 0.00316 µM [falling, full curve, poor fit].
For `CCN(c1ccccc1)c1cc(C)nc2nc(C)nn12`, the AC50 was 12.6 µM [rising, partial curve].
With `O=C(CSc1ncc(-c2ccccc2)nn1)NCc1ccco1` the AC50 was 10 µM [falling, partial curve, poor fit].
In the case of `COc1ccc(OC)c(NC(=O)NC2(C(F)(F)F)Oc3ccccc3O2)c1`, the AC50 is reported as 25.1 µM [falling, single point].
For `CN(C)C1NC(=O)c2cc(-c3ccccc3)sc2N1` (stereo unspecified), the AC50 was 0.0631 µM [falling, partial curve, poor fit].
For `CCc1ccccc1NC(=O)c1cnc2n(c1=O)CCS2`, the AC50 was 10 µM [rising, single point].
